Results from publication PMC4621449.
These are yes or no findings as the source states them, for the method shown. In cells and extracts the contact can be indirect. Some entries that bind do so weakly or less than the wild type. Tags and fused reporters may be left off the sequences shown.

Amino acid sequences for entries named in this document (tags omitted).
UniProt Q8ECH7: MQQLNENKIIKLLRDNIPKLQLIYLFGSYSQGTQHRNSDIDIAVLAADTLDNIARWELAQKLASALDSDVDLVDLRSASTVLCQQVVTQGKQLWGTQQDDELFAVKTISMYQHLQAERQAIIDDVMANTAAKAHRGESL

Molecular target: T1, Toxin SO_3166 with a C-terminal hexahistidine tag (Shewanella oneidensis) (UniProt Q8ECH6)
T1 sequence: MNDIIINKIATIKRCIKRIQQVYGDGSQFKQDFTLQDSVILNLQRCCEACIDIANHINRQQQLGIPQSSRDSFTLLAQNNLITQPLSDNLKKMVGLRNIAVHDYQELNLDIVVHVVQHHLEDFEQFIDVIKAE
Assay: pull-down; SO_3166-CHis and untagged SO_3165 coexpressed in E. coli BL21 (DE3); lysate in 50 mM monosodium phosphate pH 8.0, 300 mM NaCl, 5 mM imidazole; Ni-NTA agarose beads; Tricine-SDS-PAGE; co-purified band identified by mass spectrometry

Untagged antitoxin SO_3165 (from UniProt Q8ECH7 1-139)
binding: binds
